Data from US12194080B2, “Methods for identification, assessment, prevention, and treatment of metabolic disorders using PM20D1 and N-lipidated amino acids” (Dana-Farber Cancer Institute, Inc., priority 2015, dated 2025).

Experiment: Targeted MRM quantitation of N-acyl amino acids in plasma of AAV-injected mice
Assay type: in vivo, mouse
Conditions: for Plasma levels: endogenous level in AAV-GFP mice, room temperature, 54 days post-injection, n=4; for Plasma levels / absolute quantitation in plasma, AAV-GFP mice / absolute quantitation in plasma, AAV-PM20D1 mice: HFD; for change of plasma level by PM20D1 (AAV-PM20D1 versus AAV-GFP): targeted MRM; for absolute quantitation in plasma, AAV-GFP mice / absolute quantitation in plasma, AAV-PM20D1 mice: thermoneutrality, 47 days post-injection

CCCCCCCCCCCCCC(=O)N[C@@H](Cc1ccccc1)C(=O)O [C14-Phe]
Plasma levels: 0.4 ± 0.1 nM

CCCCCCCC/C=C\CCCCCCCC(=O)N[C@@H](C)C(=O)O [C18:1-Ala]
Plasma levels: 1.9 ± 0.2 nM | change of plasma level by PM20D1 (AAV-PM20D1 versus AAV-GFP): not

CCCCCCCC/C=C\CCCCCCCC(=O)NCC(=O)O [C18:1-Gly]
Plasma levels: 65.0 ± 14.2 nM | change of plasma level by PM20D1 (AAV-PM20D1 versus AAV-GFP): not

CCCCCCCC/C=C\CCCCCCCC(=O)N[C@@H](CC(C)C)C(=O)O [C18:1-Leu, Oleoyl-L-leucine]
absolute quantitation in plasma, AAV-GFP mice: 6 nM | absolute quantitation in plasma, AAV-PM20D1 mice: 29 nM

CCCCCCCC/C=C\CCCCCCCC(=O)N[C@@H](Cc1ccccc1)C(=O)O [C18:1-Phe, Oleoyl-L-phenylalanine]
absolute quantitation in plasma, AAV-GFP mice: 4 nM | absolute quantitation in plasma, AAV-PM20D1 mice: 10 nM | Plasma levels: 3.8 ± 0.4 nM | change of plasma level by PM20D1 (AAV-PM20D1 versus AAV-GFP): increased

CCCCCCCC/C=C\CCCCCCCC(=O)N[C@H](C(=O)O)C(C)C [C18:1-Val]
Plasma levels: 2.9 ± 0.6 nM | change of plasma level by PM20D1 (AAV-PM20D1 versus AAV-GFP): not

CCCCC/C=C\C/C=C\C/C=C\C/C=C\CCCC(=O)N[C@@H](Cc1ccccc1)C(=O)O [C20:4-Phe, N-arachidonoyl phenylalanine]
Plasma levels: 0.6 ± 0.1 nM

CCCCCCCCCCCCCCCCCCCC(=O)N[C@@H](Cc1ccccc1)C(=O)O [N-arachidoyl phenylalanine, Icosanoyl-L-phenylalanine]
Plasma levels: 0.3 ± 0.0 nM

CCCCC/C=C\C/C=C\CCCCCCCC(=O)N[C@@H](Cc1ccccc1)C(=O)O [N-linoleoyl phenylalanine]
absolute quantitation in plasma, AAV-GFP mice: 2 nM | absolute quantitation in plasma, AAV-PM20D1 mice: 7 nM | Plasma levels: 2.4 ± 0.4 nM

CCCCCCCCCCCCCCCC(=O)N[C@@H](Cc1ccccc1)C(=O)O [N-palmitoyl phenylalanine, Palmitoyl-L-phenylalanine]
absolute quantitation in plasma, AAV-GFP mice: 6 nM | absolute quantitation in plasma, AAV-PM20D1 mice: 15 nM | Plasma levels: 6.0 ± 1.5 nM
